Test: Fluorescence and fluorescence quenching studies (SLFIA conditions)
Details: for F/Fo (observed fluorescence to fluorescence in the absence of fenclofenac): 1.3 μM fluorescer
Method: Fluorescence measurements were conducted in 50 mM Bicine buffer (N,N-bis-(2-hydroxyethyl)glycine, Calbiochem-Behring, LaJolla, Calif., USA), pH 8.3, using an Aminco Bowman Fluorometer (American Instruments, Silver Springs, Md., USA), excitation set at 400 nm and emission at 450 nm, which are the fluorescence conditions for the β-galactosyl-umbelliferone enzyme substrate-labeled fluorescent immunoassay (SLFIA) described in U.S. Pat. No. 4,279,992.
Quenching studies were performed by measuring the fluorescence of a 1.3 μM solution of 2-[7-hydroxy-3-carboxamidocoumarin]ethanol (U.S. Pat. No. 4,273,715) in the presence of various levels of fenclofenac. The ratios of observed fluorescence (F) to fluorescence in the absence of fenclofenac (Fo) versus fenclofenac concentration were calculated and are presented in Table 6.

O=C(O)Cc1ccccc1Oc1ccc(Cl)cc1Cl [Fenclofenac, 2-(2,4-dichlorophenoxy)phenylacetic acid]
F/Fo (observed fluorescence to fluorescence in the absence of fenclofenac) (0.2 mM fenclofenac): 1.00 | F/Fo (observed fluorescence to fluorescence in the absence of fenclofenac) (1.0 mM fenclofenac): 1.01 | F/Fo (observed fluorescence to fluorescence in the absence of fenclofenac) (2.0 mM fenclofenac): 1.00 | F/Fo (observed fluorescence to fluorescence in the absence of fenclofenac) (5.0 mM fenclofenac): 1.00 | quenching of the umbelliferone fluorescer used in the SLFIA technique (0.2 to 10 mM fenclofenac): essentially no quenching | F/Fo (observed fluorescence to fluorescence in the absence of fenclofenac) (10. mM fenclofenac): 1.02
